# Some of the results follow.
# Columns and labels:
# Assay in all cases: glycan array binding signal (z-score within array); higher = stronger binding
# Conditions in all cases: glycan notation: IUPAC condensed, linker removed
# [1] = biological target: Neu5Ac(a2-3)Gal(b1-3)[Fuc(a1-4)]GlcNAc
# Outline: (§1)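 Glycan array data were curated from 3228 arrays in the Consortium for Functional Glycomics database and kept only where the protein sequence was available. Glycan names were converted to IUPAC-condensed notation, and columns mapping to the same glycan were averaged. The binding signal is a within-array Z-score, averaged across arrays of the same protein sequence at different concentrations or buffers and across linkers. Negative Z-scores can be read as non-binding.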
# [2] = biological target: Neu5Ac(a2-3)Gal(b1-3)[Fuc(a1-4)]GlcNAc(b1-3)Gal(b1-3)[Fuc(a1-4)]GlcNAc
# Outline: as §1
# [3] = biological target: Neu5Ac(a2-3)Gal(b1-3)[Fuc(a1-4)]GlcNAc(b1-3)Gal(b1-4)[Fuc(a1-3)]GlcNAc
# Outline: as §1
# [4] = biological target: Neu5Ac(a2-3)Gal(b1-3)[GlcNAc(b1-6)]GalNAc
# Outline: as §1
# [5] = biological target: Neu5Ac(a2-3)Gal(b1-3)[Neu5Ac(a2-6)]GalNAc
# Outline: as §1
# [6] = biological target: Neu5Ac(a2-3)Gal(b1-3)[Neu5Ac(a2-6)]GlcNAc(b1-3)[Fuc(a1-3)[Gal(b1-4)]GlcNAc(b1-6)]Gal(b1-4)Glc
# Outline: as §1
# [7] = biological target: Neu5Ac(a2-3)Gal(b1-3)]Neu5Ac(a2-3)Gal(b1-4)]GlcNAc
# Outline: as §1
# Neu5Ac(a2-3)Gal(b1-4)Glc = biological target: Neu5Ac(a2-3)Gal(b1-4)Glc
# Outline: as §1
# [8] = biological target: Neu5Ac(a2-3)Gal(b1-4)GlcNAc
# Outline: as §1
# [9] = biological target: Neu5Ac(a2-3)Gal(b1-4)GlcNAc(b1-2)Man
# Outline: as §1
# [10] = biological target: Neu5Ac(a2-3)Gal(b1-4)GlcNAc(b1-2)Man(a1-3)[GlcNAc(b1-4)][Neu5Ac(a2-3)Gal(b1-4)GlcNAc(b1-2)Man(a1-6)]Man(b1-4)GlcNAc(b1-4)GlcNAc
# Outline: as §1
# [11] = biological target: Neu5Ac(a2-3)Gal(b1-4)GlcNAc(b1-2)Man(a1-3)[Neu5Ac(a2-3)Gal(b1-4)GlcNAc(b1-2)Man(a1-6)]Man(b1-4)GlcNAc(b1-4)GlcNAc
# Outline: as §1
# [12] = biological target: Neu5Ac(a2-3)Gal(b1-4)GlcNAc(b1-2)Man(a1-3)[Neu5Ac(a2-3)Gal(b1-4)GlcNAc(b1-2)Man(a1-6)]Man(b1-4)GlcNAc(b1-4)[Fuc(a1-6)]GlcNAc
# Outline: as §1
# [13] = biological target: Neu5Ac(a2-3)Gal(b1-4)GlcNAc(b1-2)Man(a1-3)[Neu5Ac(a2-6)Gal(b1-4)GlcNAc(b1-2)Man(a1-6)]Man(b1-4)GlcNAc(b1-4)GlcNAc
# Outline: as §1
# [14] = biological target: Neu5Ac(a2-3)Gal(b1-4)GlcNAc(b1-2)[Neu5Ac(a2-3)Gal(b1-4)GlcNAc(b1-4)]Man(a1-3)[GlcNAc(b1-4)][Neu5Ac(a2-3)Gal(b1-4)GlcNAc(b1-2)[Neu5Ac(a2-3)Gal(b1-4)GlcNAc(b1-6)]Man(a1-6)]Man(b1-4)GlcNAc(b1-4)GlcNAc
# Outline: as §1
# [15] = biological target: Neu5Ac(a2-3)Gal(b1-4)GlcNAc(b1-2)[Neu5Ac(a2-3)Gal(b1-4)GlcNAc(b1-4)]Man(a1-3)[GlcNAc(b1-4)][Neu5Ac(a2-3)Gal(b1-4)GlcNAc(b1-4)Man(a1-6)]Man(b1-4)GlcNAc(b1-4)GlcNAc
# Outline: as §1
# [16] = biological target: Neu5Ac(a2-3)Gal(b1-4)GlcNAc(b1-2)[Neu5Ac(a2-3)Gal(b1-4)GlcNAc(b1-6)]Man(a1-6)[Neu5Ac(a2-3)Gal(b1-4)GlcNAc(b1-2)Man(a1-3)]Man(b1-4)GlcNAc(b1-4)GlcNAc
# Outline: as §1
# [17] = biological target: Neu5Ac(a2-3)Gal(b1-4)GlcNAc(b1-2)[Neu5Ac(a2-3)Gal(b1-4)GlcNAc(b1-6)]Man(a1-6)[Neu5Ac(a2-3)Gal(b1-4)GlcNAc(b1-2)Man(a1-3)][GlcNAc(b1-4)]Man(b1-4)GlcNAc(b1-4)GlcNAc
# Outline: as §1
# [18] = biological target: Neu5Ac(a2-3)Gal(b1-4)GlcNAc(b1-3)Gal
# Outline: as §1
# [19] = biological target: Neu5Ac(a2-3)Gal(b1-4)GlcNAc(b1-3)Gal(b1-3)GlcNAc
# Outline: as §1
# [20] = biological target: Neu5Ac(a2-3)Gal(b1-4)GlcNAc(b1-3)Gal(b1-4)GlcNAc
# Outline: as §1
# [21] = biological target: Neu5Ac(a2-3)Gal(b1-4)GlcNAc(b1-3)Gal(b1-4)GlcNAc(b1-2)Man(a1-3)[Neu5Ac(a2-3)Gal(b1-4)GlcNAc(b1-3)Gal(b1-4)GlcNAc(b1-2)Man(a1-6)]Man(b1-4)GlcNAc(b1-4)GlcNAc
# Outline: as §1
# [22] = biological target: Neu5Ac(a2-3)Gal(b1-4)GlcNAc(b1-3)Gal(b1-4)GlcNAc(b1-3)Gal(b1-4)GlcNAc
# Outline: as §1
# [23] = biological target: Neu5Ac(a2-3)Gal(b1-4)GlcNAc(b1-3)Gal(b1-4)GlcNAc(b1-3)Gal(b1-4)GlcNAc(b1-2)Man(a1-3)[Neu5Ac(a2-3)Gal(b1-4)GlcNAc(b1-3)Gal(b1-4)GlcNAc(b1-3)Gal(b1-4)GlcNAc(b1-2)Man(a1-6)]GalNAc
# Outline: as §1
# [24] = biological target: Neu5Ac(a2-3)Gal(b1-4)GlcNAc(b1-3)Gal(b1-4)GlcNAc(b1-3)GalNAc
# Outline: as §1
# [25] = biological target: Neu5Ac(a2-3)Gal(b1-4)GlcNAc(b1-3)Gal(b1-4)GlcNAc(b1-3)[Neu5Ac(a2-3)Gal(b1-4)GlcNAc(b1-3)Gal(b1-4)GlcNAc(b1-6)]GalNAc
# Outline: as §1
# [26] = biological target: Neu5Ac(a2-3)Gal(b1-4)GlcNAc(b1-3)Gal(b1-4)GlcNAc(b1-6)[Gal(b1-3)]GalNAc
# Outline: as §1
# [27] = biological target: Neu5Ac(a2-3)Gal(b1-4)GlcNAc(b1-3)Gal(b1-4)[Fuc(a1-3)]GlcNAc
# Outline: as §1
# [28] = biological target: Neu5Ac(a2-3)Gal(b1-4)GlcNAc(b1-3)GalNAc
# Outline: as §1
# [29] = biological target: Neu5Ac(a2-3)Gal(b1-4)GlcNAc(b1-3)[Neu5Ac(a2-3)Gal(b1-4)GlcNAc(b1-6)]GalNAc
# Outline: as §1
# [30] = biological target: Neu5Ac(a2-3)Gal(b1-4)GlcNAc(b1-6)GalNAc
# Outline: as §1
# [31] = biological target: Neu5Ac(a2-3)Gal(b1-4)GlcNAc(b1-6)[Gal(b1-3)]GalNAc
# Outline: as §1
# [32] = biological target: Neu5Ac(a2-3)Gal(b1-4)GlcNAc(b1-6)[Neu5Ac(a2-3)Gal(b1-3)]GalNAc
# Outline: as §1
# [33] = biological target: Neu5Ac(a2-3)Gal(b1-4)GlcNAc6S
# Outline: as §1
# [34] = biological target: Neu5Ac(a2-3)Gal(b1-4)[Fuc(a1-3)]GlcNAc
# Outline: as §1
# [35] = biological target: Neu5Ac(a2-3)Gal(b1-4)[Fuc(a1-3)]GlcNAc(b1-2)Man
# Outline: as §1
# [36] = biological target: Neu5Ac(a2-3)Gal(b1-4)[Fuc(a1-3)]GlcNAc(b1-3)Gal
# Outline: as §1
# [37] = biological target: Neu5Ac(a2-3)Gal(b1-4)[Fuc(a1-3)]GlcNAc(b1-3)Gal(b1-4)GlcNAc
# Outline: as §1
# [38] = biological target: Neu5Ac(a2-3)Gal(b1-4)[Fuc(a1-3)]GlcNAc(b1-3)Gal(b1-4)[Fuc(a1-3)]GlcNAc(b1-3)Gal(b1-4)[Fuc(a1-3)]GlcNAc
# Outline: as §1
# [39] = biological target: Neu5Ac(a2-3)Gal(b1-4)[Fuc(a1-3)]GlcNAc(b1-3)GalNAc
# Outline: as §1
# [40] = biological target: Neu5Ac(a2-3)Gal(b1-4)[Fuc(a1-3)]GlcNAc(b1-6)[Gal(b1-3)]GalNAc
# Outline: as §1
# [41] = biological target: Neu5Ac(a2-3)Gal(b1-4)[Fuc(a1-3)]GlcNAc(b1-6)[Neu5Ac(a2-3)Gal(b1-3)]GalNAc
# Outline: as §1
# [42] = biological target: Neu5Ac(a2-3)Gal(b1-4)[Fuc(a1-3)]GlcNAc6S
# Outline: as §1
# [43] = biological target: Neu5Ac(a2-3)Gal6S(b1-4)GlcNAc
# Outline: as §1
# [44] = biological target: Neu5Ac(a2-3)Gal6S(b1-4)[Fuc(a1-3)]GlcNAc
# Outline: as §1
binder,measurement,setting,value
Clone646PsrP (Streptococcus pneumoniae) (protein) MDHHHHHHHHASENLYFQGAPAINASLNIAKSETKVYTGEGVDSVYRVPIYYKLKVTNDGSKLTFTYTVTYVNPKTNDLGNISSMRPGYSIYNSGTSTQTMLTLGSDLGKPSGVKNYITDKNGRQVLSYNTSTMTTQGSGYTWGNGAQMNGFFAKKGYGLTSSWTVPITGTDTSFTFTPYAARTDRIGINYFNGGGKVVESSTTSQSLSQSKSLSVSAS,glycan array binding signal (z-score),[1],1.13
same,glycan array binding signal (z-score),[2],-0.452
same,glycan array binding signal (z-score),[3],-0.482
same,glycan array binding signal (z-score),[4],-0.453
same,glycan array binding signal (z-score),[5],-0.254
same,glycan array binding signal (z-score),[6],-0.878
same,glycan array binding signal (z-score),[7],1.22
same,glycan array binding signal (z-score),Neu5Ac(a2-3)Gal(b1-4)Glc,1.05
same,glycan array binding signal (z-score),[8],0.372
same,glycan array binding signal (z-score),[9],2.89
same,glycan array binding signal (z-score),[10],-0.995
same,glycan array binding signal (z-score),[11],-0.947
same,glycan array binding signal (z-score),[12],-0.778
same,glycan array binding signal (z-score),[13],-0.963
same,glycan array binding signal (z-score),[14],-0.987
same,glycan array binding signal (z-score),[15],-0.74
same,glycan array binding signal (z-score),[16],-0.679
same,glycan array binding signal (z-score),[17],-0.951
same,glycan array binding signal (z-score),[18],-0.909
same,glycan array binding signal (z-score),[19],-0.942
same,glycan array binding signal (z-score),[20],0.751
same,glycan array binding signal (z-score),[21],-0.824
same,glycan array binding signal (z-score),[22],-0.683
same,glycan array binding signal (z-score),[23],-0.067
same,glycan array binding signal (z-score),[24],-0.519
same,glycan array binding signal (z-score),[25],-0.501
same,glycan array binding signal (z-score),[26],-0.355
same,glycan array binding signal (z-score),[27],-0.61
same,glycan array binding signal (z-score),[28],-0.781
same,glycan array binding signal (z-score),[29],-0.321
same,glycan array binding signal (z-score),[30],-0.512
same,glycan array binding signal (z-score),[31],-0.717
same,glycan array binding signal (z-score),[32],-0.92
same,glycan array binding signal (z-score),[33],-0.446
same,glycan array binding signal (z-score),[34],-0.772
same,glycan array binding signal (z-score),[35],-0.265
same,glycan array binding signal (z-score),[36],-1
same,glycan array binding signal (z-score),[37],-0.71
same,glycan array binding signal (z-score),[38],-0.774
same,glycan array binding signal (z-score),[39],-0.406
same,glycan array binding signal (z-score),[40],-0.803
same,glycan array binding signal (z-score),[41],0.021
same,glycan array binding signal (z-score),[42],0.101
same,glycan array binding signal (z-score),[43],-0.579
same,glycan array binding signal (z-score),[44],-0.747

# In a second layout: results already given
binder	measurement	setting	value
Clone646PsrP (Streptococcus pneumoniae) (protein) MDHHHHHHHHASENLYFQGAPAINASLNIAKSETKVYTGEGVDSVYRVPIYYKLKVTNDGSKLTFTYTVTYVNPKTNDLGNISSMRPGYSIYNSGTSTQTMLTLGSDLGKPSGVKNYITDKNGRQVLSYNTSTMTTQGSGYTWGNGAQMNGFFAKKGYGLTSSWTVPITGTDTSFTFTPYAARTDRIGINYFNGGGKVVESSTTSQSLSQSKSLSVSAS	glycan array binding signal (z-score)	[13]	-0.963
same	glycan array binding signal (z-score)	[14]	-0.987
same	glycan array binding signal (z-score)	[15]	-0.74
same	glycan array binding signal (z-score)	[16]	-0.679
same	glycan array binding signal (z-score)	[17]	-0.951
same	glycan array binding signal (z-score)	[18]	-0.909
same	glycan array binding signal (z-score)	[19]	-0.942
same	glycan array binding signal (z-score)	[20]	0.751
same	glycan array binding signal (z-score)	[21]	-0.824
same	glycan array binding signal (z-score)	[22]	-0.683
same	glycan array binding signal (z-score)	[23]	-0.067
same	glycan array binding signal (z-score)	[24]	-0.519

# — the supplement of paper PMC8728848
